Measurements as given in patent US6140466.

Protein sequences, listed by entry. Tags and fused reporters are not part of them. Residues count along the entry.
UniProt P03001, 33-123: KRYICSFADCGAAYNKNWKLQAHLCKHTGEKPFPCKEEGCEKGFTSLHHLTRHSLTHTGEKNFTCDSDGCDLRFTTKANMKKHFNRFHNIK

Biological target: TFIIIA zf1-3 (UniProt P03001)
Assay: inhibition of the protein
Conditions: represses 5S RNA pol III transcription in Xenopus egg extract; purified recombinant protein; protein details: first three zinc fingers of TFIIIA; only the site is given

With “TGGATGGGAGACC (double strand) [5S RNA gene plasmid]” the “activity on this sequence” value was “active”.
